# Measurements: PubChem BioAssay AID2685 (National Center for Advancing Translational Sciences (NCATS), 2010)
# Among all 320,000 compounds or so, about 2,100 (0.66%) were called active. Inconclusive means that the source gave no clear call. Such entries were picked first, then a sample of the others. Calls come from the whole dose curve; as a rule, active = well fitted inhibition curve with a large enough effect in the signal ratio, with a control signal flat (not every such curve was filed as active); inconclusive = small, poorly fitted or top-dose-only effect, or effect the other way, or a change in a side signal; inactive = flat fitted curve, though single readings scatter; the % refers to the signal ratio. A potency beside an inconclusive call is a rough fit, not a confirmed value.
# Assay: qHTS Assay for Lipid Storage Modulators in Drosophila S3 Cells
# Conditions: BODIPY lipid droplet fluorescence, 18-24 h, cells fed with added oleic acid; lipid storage change, negative = inhibition: at 46.1 µM (top of the series) unless noted
# Summary of the method: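 Drosophila S3 cells loaded with oleic acid (400 uM, as added) and compounds at several concentrations; lipid droplets imaged by 488-nm laser-scanning cytometry, 500–530 nm intensity and object ratio to cell channel. Percent activity normalized to 20 uM Triacsin C.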
# % is set by controls: 0 for no effect and ±100 for the full control effect; potency is the fitted concentration of half-maximal effect.
Structure (SMILES),"lipid storage change, negative = inhibition",Potency
CCCCOc1ccc(S(=O)(=O)Nc2ccc(NC(C)=O)cc2)cc1,inconclusive: -18.9%,–
Cc1nn(-c2ccccc2)c2[nH]c(=O)c(CNc3ccc4c(c3)OCCO4)cc12,inconclusive: 32.4%,–
CC(C)COc1ccc(-c2nn(-c3ccccc3)cc2CO)cc1,inconclusive: -50.7%,–
O=C(CN1C(=O)c2ccccc2C1=O)NC1CCCCC1,inconclusive: -9.65%,–
COCCn1c(=S)[nH]c2cc(C(=O)NCCc3ccccc3)ccc2c1=O,–,active: 2.31 µM
Cc1c(-c2ccccc2)sc(Br)c1C(=O)N1CCOCC1,–,"inconclusive: 4.11 µM [falling, single point]"
Cc1cccc(N(CC(O)CN(C)C)S(=O)(=O)c2ccccc2)c1 (stereo not given),–,"inconclusive: 29.1 µM [falling, single point]"
CN(Cc1ccccc1)C(=O)c1[nH]cnc1C(=O)NCc1ccc(CNC(=O)OC(C)(C)C)cc1,inconclusive: -4.2%,–
O=C(N/N=C\c1ccc(Br)cc1)c1ccc(Cn2cccn2)o1,inconclusive: 5.57%,–
Cc1ccc(NC(=O)COC(=O)CSCC(=O)Nc2cc(C)on2)c(C)c1,inconclusive,–
CN1CCCN(S(=O)(=O)c2ccc(O)c(C(=O)O)c2)CC1,inconclusive: -19.9%,–
COc1cc(C2Nc3ccccc3C(=O)N2NS(C)(=O)=O)ccc1O (stereo not given),inconclusive: -20.6%,–
Cc1nn(Cc2ccccc2)c(C)c1C(=O)NCCN1C(=O)S/C(=C\c2ccccc2)C1=O,–,"inconclusive: 29.1 µM [cytotoxic, single point]"
COc1ccc(-c2csc3ncnc(N4CCN(c5ccccc5[N+](=O)[O-])CC4)c23)cc1,inconclusive: -100%,–
CCc1nnc(NC(=O)c2cccc(S(=O)(=O)N3CCN(c4ccccc4)CC3)c2)s1,inconclusive: -17%,–
Cc1onc(-c2c(F)cccc2Cl)c1C(=O)Nc1cccc2nsnc12,–,"inconclusive: 6.51 µM [falling, single point]"
c1ccc(-c2nnsc2-c2ccccc2)cc1,–,"inconclusive: 23.1 µM [activator, single point]"
CCCCCCN(C(=O)CCCCCN1C(=O)NC(c2ccc(-c3ccccc3)cc2)C(C(=O)OCc2ccccc2)=C1C)C(C(=O)NCCCC)c1ccccc1 (stereo not given),inconclusive: -4.19%,–
O=C(NCc1ccccc1)C(c1ccccc1)N(C(=O)c1csnn1)C1CC1 (stereo not given),inactive,–
Cc1sc2ncnc(-n3cnc4ccccc43)c2c1C,inconclusive: 11.4%,–
Cc1cc(C)c(C(=O)Nc2ccc(Br)c(C(F)(F)F)c2)c(C)c1,–,"inconclusive: 29.1 µM [falling, single point]"
Cc1ccccc1Nc1c([N+](=O)[O-])ccc2c1=NC1(CCCCC1)N=2,inconclusive: 19.2%,–
CCOc1ccccc1N(CC(=O)Nc1ccc(S(=O)(=O)N2CCOCC2)cc1)S(=O)(=O)c1ccccc1,inconclusive: -26.6%,–
CCCCNc1nc(N)nc(-c2cc(Cl)ccc2O)n1,–,"inconclusive: 29.1 µM [cytotoxic, single point]"
CCOC(=O)c1cnc(-n2nc(C)cc2C)nc1NC,–,"inconclusive: 5.17 µM [activator, partial curve, poor fit]"

# Gathered by group, those above containing bromine (3)
Structure (SMILES),"lipid storage change, negative = inhibition",Potency
Cc1c(-c2ccccc2)sc(Br)c1C(=O)N1CCOCC1,–,"inconclusive: 4.11 µM [falling, single point]"
O=C(N/N=C\c1ccc(Br)cc1)c1ccc(Cn2cccn2)o1,inconclusive: 5.57%,–
Cc1cc(C)c(C(=O)Nc2ccc(Br)c(C(F)(F)F)c2)c(C)c1,–,"inconclusive: 29.1 µM [falling, single point]"

# (cont.)

Structure (SMILES),"lipid storage change, negative = inhibition",Potency
O=c1[nH]c2ccccc2s1,inconclusive: 17.3%,–
CCOc1cccc(-c2c(C(=O)N/N=C/c3c(F)cccc3Cl)nnn2-c2nonc2N)c1,–,"inconclusive: 29.1 µM [falling, single point]"
CC(=O)Nc1ccc(S(=O)(=O)N2CCN(C(=O)N3CCCC3)CC2)cc1,–,"inconclusive: 0.259 µM [falling, full curve, poor fit]"
COc1ccc(Cn2c3nc4ccccc4nc3c3c(=O)n(Cc4ccco4)cnc32)cc1,–,"inconclusive: 2.06 µM [activator, full curve]"
COc1ccc(NS(=O)(=O)c2cccc(C(=O)NCC3(N(C)C)CCCCC3)c2)cc1,inconclusive: -16.8%,–
COc1ccc(-n2c(CNC(=O)c3cccs3)n[nH]c2=S)cc1,inconclusive: 6.38%,–
Cc1ccc(NC(=O)Cn2cc(S(=O)(=O)c3ccc(C)cc3)c(=O)c3cc(F)ccc32)cc1,inconclusive: -8.86%,–
O=C(CCCC(=O)OCC(F)(F)C(F)F)Nc1ccc(NC(=O)CCCC(=O)OCC(F)(F)C(F)F)cc1,inactive,–
O=Cc1sc(Nc2ccccc2)nc1Cl,inconclusive: -5.15%,–
O=C(NNC(=O)C1CCC1)c1ccccc1,inconclusive: 0.629%,–
O=S1(=O)N=C(N2CCN(Cc3ccc4c(c3)OCO4)CC2)c2ccccc21,–,"inconclusive: 1.64 µM [activator, partial curve]"
Fc1cccc(NC(=S)NCCc2ccccc2)c1,inconclusive: -1.22%,–
N#Cc1c(-c2ccccc2)cc(-c2ccc3c(c2)OCO3)[nH]c1=O,–,active: 8.2 µM
OCCC1CN(Cc2cccc(F)c2F)CCN1CCc1ccccc1 (stereo not given),inconclusive: -26.2%,–
CSCCC(NC(=O)C1CCC(C)CC1)C(=O)OCC(=O)c1ccc(Cl)cc1 (stereo not given),–,"inconclusive: 29.1 µM [activator, single point]"
CCO[C@@H]1OC(C(=O)NCc2ccccc2)=C[C@H](c2ccc(C(F)(F)F)cc2)[C@H]1CCCO,–,"inconclusive: 16.4 µM [falling, single point]"
C[C@H]1CCC[C@]2(C)C[C@H]3OC(=O)C(CN4CCCCCC4)[C@H]3C=C12 (stereo not given in full),–,"inconclusive: 10.3 µM [falling, partial curve, poor fit]"
CCOc1cc(S(=O)(=O)NCCc2ccc(OC)c(OC)c2)c(OCC)cc1-n1cnnn1,–,"inconclusive: 1.84 µM [rising, partial curve]"
CCCc1nc(N2CCCC2)c(C#N)c2c1CCCC2,–,"inconclusive: 0.82 µM [cytotoxic, full curve, poor fit]"
Cc1[nH]c(=S)n(CC2CCCO2)c1C (stereo not given),–,"inconclusive: 0.651 µM [falling, full curve]"
COC(=O)N1CCN(c2ccc(C)c(C)c2)CC1,inconclusive: 0.163%,–
COc1ccc(/C=C(\C#N)c2nc3ccc(C)cc3[nH]2)cc1Oc1ccc(C(F)(F)F)cc1[N+](=O)[O-],–,active: 8.2 µM
NC(=O)C1CCN(C(=O)NC(=O)c2ccccc2)CC1,inconclusive: 280%,–
COc1cc(NC(=O)N2c3ccccc3Sc3ccccc32)c(C(=O)O)cc1OC,–,"inconclusive: 6.51 µM [activator, partial curve, poor fit]"
COc1ccc(CC(=O)Nc2cccc(S(=O)(=O)N3CCOCC3)c2)cc1OC,–,active: 23.1 µM

Structure (SMILES),"lipid storage change, negative = inhibition",Potency
Cc1cc(C)n2nc(-c3cccnc3)nc2n1,inconclusive: 33.2%,–
Cc1cc(C)cc(CC(Cc2nc3ccccc3[nH]2)c2nc3ccccc3[nH]2)c1 (stereo not given),inconclusive: 8.98%,–
c1ccc(-c2nc(NCc3cccnc3)c3ccccc3n2)cc1,inconclusive: -69.5%,–
N#C/C=C1/NC(=O)c2ccccc2S1,–,"inconclusive: 0.0058 µM [activator, full curve, poor fit]"
Cc1[nH]c(=O)[nH]c(=O)c1/C=N/NC(=O)[C@H](C)NC(=O)OC(C)(C)C,inconclusive: -12.4%,–
CNc1nc2c(c(=O)[nH]c(=O)n2C)n1CCCc1ccccc1,–,"inconclusive: 29.1 µM [falling, single point]"
NCCCCCc1cn([C@@H](CCC(=O)O)C(=O)NCCCCCCCCCCC(=O)N2CCNCC2)nn1,inconclusive: -2.86%,–
O=C(CN1CCN(S(=O)(=O)c2ccc(F)c(Cl)c2)CC1)N1CCNC1=O,–,"inconclusive: 5.8 µM [falling, single point]"
Cc1cc(Cl)ccc1OC(C)C(=O)Nc1ccc(C(=O)Nc2ccccc2C(=O)O)cc1 (stereo not given),inconclusive: 16.5%,–
Cc1csc(NC(=O)CSc2nc(=O)n(CCN(C)C)c3c2CCCC3)n1,inconclusive: -9.32%,–
O=C(Nc1ncccc1O)c1ccc(S(=O)(=O)Nc2ccccc2)cc1,inconclusive: 16.9%,–
CC(C)CCNC(=O)CN(CC1CCCO1)C(=O)CCC(=O)Nc1nccs1 (stereo not given),inactive,–
COc1ccc(/C=N/NC(=O)c2ccccc2O)cc1CSc1ccccn1,inconclusive: 22.6%,–
COc1ccc(Oc2cccc(Cl)c2CNC(=O)CC(C)(C)CC(=O)O)cc1,inconclusive: -9.87%,–
Cc1ccnc(NS(=O)(=O)c2ccc(NC(=O)CN3C(=O)c4ccccc4S3(=O)=O)cc2)n1,inconclusive: -10.4%,–
CCc1ccccc1NC(=O)NNS(=O)(=O)c1cc(C)ccc1C,–,"inconclusive: 22.4 µM [activator, partial curve, poor fit]"
O=C1C=C(c2cccc3c2sc2ccccc23)C[C@@H](c2ccc(Cl)cc2)C1,inconclusive: -23.7%,–
COc1ccc(NC(=O)C2CCCN(S(C)(=O)=O)C2)c(OC)c1 (stereo not given),inconclusive: 18.7%,–
CCOC(=O)c1c(C)c(C(=O)Nc2ccc3c(c2)OCCO3)c(C)n1CC,inconclusive: 24.5%,–
CCOC(=O)c1sc(=S)n(CC)c1NC(=O)c1ccccc1C,inconclusive: -15.6%,–
Cc1ccccc1/C=C/C12NC(=O)CN1c1ccccc1C2(C)C (stereo not given),inconclusive: 2.72%,–
CCC(CC)C(=O)Nc1ccccc1NC(C)=O,inconclusive: -0.875%,–
CCOc1cc(C(=O)Nc2ccc(C)cc2O)ccc1OCC(=O)N1CCOCC1,inconclusive: 25.5%,–
CCC[C@H]1COCCS(=O)(=O)N1Cc1ccccc1,inconclusive: -0.426%,–
CCN1CCN(Cc2ccc(NC(=O)c3ccc(C)c(NC(=O)c4ccc5n[nH]nc5c4)c3)cc2C(F)(F)F)CC1,inactive,–
